Experimental data reported in PubChem BioAssay AID2685 (National Center for Advancing Translational Sciences (NCATS), 2010).
This is one part of the list. These are further read-outs of the screen, such as a control signal, another cell line or another target. No call is given for them. The list favours compounds with an active or inconclusive main result. The note in brackets gives the kind of curve behind each potency; many fits are weak.

Assay: qHTS Assay for Lipid Storage Modulators in Drosophila S3 Cells;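 on cell number change: cells counted by Cell Tracker Red CMTPX staining in the red channel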
Details: BODIPY lipid droplet fluorescence, 18-24 h; for cell number change: measured here: cell count max response, cells fed with added oleic acid
Method in brief: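 Drosophila S3 cells got compounds at several concentrations plus oleic acid (400 uM solution). Laser-scanning cytometry with 488 nm excitation read lipid droplets at 500-530 nm and cells at 575-640 nm. Percent activity was relative to 20 uM Triacsin C.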

[1] = measured here: cell number channel AC50, cells fed with added oleic acid
[2] = measured here: lipid fluorescence (Fed channel) AC50, cells fed with added oleic acid

Row | Compound | cell number change [%] | AC50 [1] | AC50 [2]
1 | CC(=O)CCc1ccc(OCC(=O)Nc2cccc(S(=O)(=O)N(C)c3ccccc3)c2)cc1 | 47.8 | 13 µM [rising, partial curve, poor fit] | 
2 | CC(=O)c1ccccc1NC(=O)c1ccc(N2CCCC2=O)cc1 | 37 | 1.3 µM [rising, partial curve] | 16.4 µM [rising, partial curve]
3 | O=C1[C@H]2CC3CCC2(O3)[C@@H]2OCCCN12 (some centres undefined) | 0.858 |  | 
4 | Cc1ccc(C(=O)NC(=C(Cl)Cl)S(=O)(=O)c2ccc(Cl)cc2)cc1 | -29 |  | 32.6 µM [falling, partial curve, poor fit]
5 | CSCCC(NC(=O)c1ccco1)C(=O)Nc1ccc(C)c(S(=O)(=O)N2CCOCC2)c1 (centres undefined) | 4.17 |  | 
6 | Cc1ccc(CNC(=O)CS(=O)CC(=O)O)cc1 (centres undefined) | -30.2 | 7.31 µM [falling, partial curve] | 14.6 µM [falling, partial curve]
7 | Cc1ccc(CN2Cc3cccc4c3[C@@H](CC2=O)[C@H](O)[C@H](O)C4)cc1 | -1.56 |  | 16.4 µM [rising, partial curve]
8 | CC(=O)Nc1cc(NC(C)=O)c(CC(C)C)s1 | -10.8 | 0.116 µM [falling, full curve, poor fit] | 6.51 µM [falling, single point]
9 | CC(C)CN(C(=O)CSc1n[nH]c(-c2cccs2)n1)C1CCS(=O)(=O)C1 (centres undefined) | -4.26 |  | 29.1 µM [falling, single point]
10 | COC(=O)CCSCC(=O)Nc1ccc(C)c(S(=O)(=O)N2CCCCC2)c1 | -8.11 |  | 
11 | CC1CN(C(=O)c2ccc(NS(=O)(=O)c3ccc(C(C)(C)C)cc3)cc2)CC(C)O1 (centres undefined) | -14.1 |  | 29.1 µM [falling, single point]
12 | Cc1cc2nc(Cl)c(Cl)nc2cc1C | -15.4 |  | 20.6 µM [falling, single point]
13 | COc1ccccc1NC(=O)Nc1ccccc1N1CCOCC1 | -16.5 | 0.58 µM [rising, single point] | 0.0731 µM [falling, full curve, poor fit]
14 | Cc1ccnc(NC(=O)c2ccc(OCc3c(C)noc3C)cc2)c1 | -25 | 0.82 µM [rising, single point] | 
15 | Cc1ccc(NC(=O)c2ccc(Oc3ncccn3)cc2)cc1 |  |  | 6.51 µM [falling, single point]
16 | O=C(CSc1nnc(CNC(=O)c2ccc(F)cc2)o1)Nc1nccs1 | -57.7 | 5.01 µM [falling, partial curve] | 14.1 µM [falling, partial curve]
17 | COc1ccc(/C=C/C2=NN(Cc3ccccc3)C(=O)CC2)cc1 | 23.7 |  | 29.1 µM [rising, single point]
18 | CC(C)(C)NC(=O)CN(C(=O)C(=O)Nc1ccc2c(c1)OCCO2)C1CCCC1 | -10.5 |  | 0.206 µM [falling, single point]
19 | Cc1cc(C)n2nc(C(=O)OCC(=O)NC3CCCCC3)nc2n1 | 7 |  | 
20 | COc1ccc(CCN(Cc2cc3cccc(C)c3[nH]c2=O)C(=O)NC2CCCCC2)cc1OC | 23.6 | 0.164 µM [rising, full curve, poor fit] | 
21 | COCCNC(=O)COC(=O)/C=C/c1c(C)nn(Cc2ccc(Cl)cc2Cl)c1Cl | -55.1 | 13 µM [falling, partial curve] | 4.11 µM [falling, single point]

Row | Compound | cell number change [%] | AC50 [1] | AC50 [2]
22 | Cc1ccc(-n2c(C)cc(/C=N/NC(=O)c3ccncc3)c2C)c(C)c1 |  |  | 16.4 µM [falling, partial curve, poor fit]
23 | Cc1ccc(C(=O)NCCCNC(=O)COc2ccccc2Cl)cn1 | -11.5 |  | 
24 | O=C(CN1CCOCC1)Nc1ccccc1C(=O)O | -20.6 |  | 0.184 µM [falling, full curve, poor fit]
25 | C=CCn1c(SCC(=O)NCc2ccc3c(c2)OCO3)nc2scc(-c3ccc(F)cc3)c2c1=O | 68.8 | 2.59 µM [rising, full curve] | 18.4 µM [rising, partial curve]
26 | CN(C)CCN1C(=O)C(=O)/C(=C(/O)c2ccc(S(=O)(=O)N3CCOCC3)cc2)C1c1ccc(Br)cc1 (centres undefined) | 11.7 |  | 0.00651 µM [rising, full curve, poor fit]
27 | COc1ccc(S(=O)(=O)NCCC(C)C)cc1OC | 13.3 |  | 
28 | Oc1ccc(Cl)cc1CNCc1ccc(F)cc1 | -42.5 | 23.1 µM [falling, single point] | 1.64 µM [falling, partial curve]
29 | COc1ccc(N(C(=O)c2snc(C(N)=O)c2N)C(C(=O)NC2CCCC2)c2cccs2)c(OC)c1 (centres undefined) | -31.4 | 0.291 µM [falling, single point] | 
30 | COc1ccc(-c2nn(-c3ccccc3)cc2/C=C(\CC(=O)O)c2nc3ccccc3s2)cc1OC |  |  | 6.51 µM [rising, single point]
31 | Cc1ccc(-n2c(C)c(C)c3c(N)ncnc32)cc1 | 4.62 |  | 6.51 µM [falling, single point]
32 | CCCCCCc1ccc(OCC(=O)OC)cc1OCC(=O)OC |  |  | 20.6 µM [rising, partial curve, poor fit]
33 | CCCC(=O)NC(c1ccc(N(C)C)cc1)c1ccc2cccnc2c1O (centres undefined) | -22.8 |  | 29.1 µM [falling, single point]
34 | COc1ccc2c(c1)C(=O)N(c1ccc(C)cc1C)C(=O)C2 | 33.5 | 5.8 µM [rising, partial curve] | 20.6 µM [falling, single point]
35 | COc1ccccc1-c1c(C(F)(F)F)oc2cc(OCC(=O)Nc3ccccc3C(F)(F)F)ccc2c1=O | -13.6 |  | 23.1 µM [falling, single point]
36 | CC(=O)c1cccc(OCCCOc2cccc3cccnc23)c1 | -6.35 |  | 
37 | CCN1CCc2c(OCC(=O)Nc3ccc4c(c3)OCCO4)cccc2C1=O | -5.2 |  | 
38 | Cc1ccc(NCC(=O)c2ccc(C)cc2)cc1 | -29.9 |  | 11.6 µM [falling, single point]
39 | CCOC(=O)c1c(N)nn(C(=O)C(C)(C)C)c1-c1ccccc1 | 3.78 |  | 0.082 µM [rising, full curve, poor fit]
40 | COc1cc(OC)c(N(C)S(=O)(=O)c2cccc(C(=O)Nc3nc(C)cs3)c2)cc1Cl | -15.5 |  | 3.66 µM [rising, single point]
41 | O=C(NCC1COc2ccccc2O1)C1CCCN(S(=O)(=O)c2cccc3cccnc23)C1 (centres undefined) | 23.4 |  | 25.9 µM [falling, single point]
42 | Cc1ccc(-c2nnc(Nc3ccc4c(c3)nc(C)n4C)c3ccccc23)cc1 | -39 | 29.1 µM [falling, single point] | 23.1 µM [falling, single point]

Full records, looked up by structure.
Oc1ccc(Cl)cc1CNCc1ccc(F)cc1 is listed with cell number change [%]: -42.5; AC50 [1]: 23.1 µM [falling, single point]; AC50 [2]: 1.64 µM [falling, partial curve]
COc1ccc(N(C(=O)c2snc(C(N)=O)c2N)C(C(=O)NC2CCCC2)c2cccs2)c(OC)c1 (centres undefined) is listed with cell number change [%]: -31.4; AC50 [1]: 0.291 µM [falling, single point]
Cc1ccc(CNC(=O)CS(=O)CC(=O)O)cc1 (centres undefined) is listed with cell number change [%]: -30.2; AC50 [1]: 7.31 µM [falling, partial curve]; AC50 [2]: 14.6 µM [falling, partial curve]

Later entries

Row | Compound | cell number change [%] | AC50 [1] | AC50 [2]
43 | CS(=O)(=O)N1CC(C(=O)NC2CC2)Oc2ccc(Cl)cc21 (centres undefined) | 152 |  | 
44 | CCCOC(=O)/C(C(N)=NCc1ccccc1)=C(\O)OCCC | -59.3 | 18.4 µM [falling, single point] | 2.31 µM [rising, single point]
45 | CCCN(CC(=O)Nc1ccccc1C)C(=O)/C=C/c1ccc(S(=O)(=O)N2CCCCCC2)cc1 | 21.4 |  | 25.9 µM [rising, single point]
46 | COc1cc(C2C(C#N)=C(N)Oc3cc(C)oc(=O)c32)ccc1OC(=O)N1CCOCC1 (centres undefined) | 21.4 |  | 0.164 µM [falling, full curve, poor fit]
47 | O=C(NC(=S)Nc1ccc(CN2CCOCC2)cc1)c1ccc(-c2ccc(Br)cc2)o1 | 51.1 |  | 
48 | CSc1ccc(S(=O)(=O)NCC(=O)OCC(=O)N(C)C2CCCCC2)cc1[N+](=O)[O-] | -8.5 |  | 
49 | COc1ccc(OCC(O)CN2CCN(c3ccccc3)CC2)cc1 (centres undefined) | 31.6 | 14.6 µM [rising, partial curve, poor fit] | 
50 | COc1ccc(C)cc1NC(=O)C(OC(=O)c1cnccn1)c1ccccc1 (centres undefined) | 34 | 13 µM [rising, single point] | 
51 | Cc1c(Cc2ccccc2)c(NCCCO)n2c(nc3ccccc32)c1C#N | 15.9 |  | 
52 | OC(CNC1CCCCC1)COCCOc1ccc(Br)cc1 (centres undefined) | -3.92 |  | 5.8 µM [rising, single point]
53 | O=C(O)c1cnc2ccccc2n1 | -5.26 |  | 0.291 µM [rising, full curve]
54 | CCOC(=O)c1c(C)c(C(=O)NCc2cccs2)c(C)n1CC | -24.3 |  | 7.31 µM [falling, partial curve]
55 | CCOc1ccc(NC(=O)CNC(=O)c2ccco2)cc1 | 6.78 |  | 0.0461 µM [rising, full curve, poor fit]
56 | Cc1cc(C(F)(F)F)n2ncc(C(=O)O)c2n1 |  |  | 9.2 µM [falling, partial curve, poor fit]
57 | COc1cc(/C=C\C(=O)NCc2ccc3[nH]c(C)cc3c2)cc(OC)c1OC | -0.789 |  | 0.731 µM [rising, partial curve]
58 | CCNc1nc(NCC)nc(N/N=C(\C)c2ccc(OC)cc2)n1 |  |  | 1.84 µM [rising, partial curve, poor fit]
59 | O=C(NCC(=O)N(c1cccnc1)C(C(=O)NC1CCCCC1)c1ccccc1)c1ccco1 (centres undefined) | 14.3 |  | 6.51 µM [rising, single point]
60 | O=C(/C=C\Nc1cccc(F)c1)c1cccs1 |  | 1.46 µM [rising, full curve, poor fit] | 5.8 µM [rising, single point]
61 | CCN(CC)c1ccc(NC(=S)NC(=O)Cc2ccccc2)cc1 |  |  | 0.116 µM [falling, full curve, poor fit]
